Record: PubChem BioAssay AID1508597 (Cure First, 2020)
Assay: 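Knock-downs altering ovarian cancer cell survival with or without PARP inhibitor rucaparib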 (primary screen). Cells: human ovarian carcinoma lines grown from tumours: OCI-P5x (papillary serous) and OCI-C5x (clear cell). Reagents: siRNA pool against human genes, 1.25 pmol siRNA per well. Duration: 72 h or 96 h, depending on the cell culture. Challenge: rucaparib 20 µM (about IC30) or vehicle, present until read-out. Rucaparib or vehicle: Vehicle. Cell line: OCI-C5x (clear cell). Measurement: 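ATP luminescence measured at 72 or 96 h according to the culture, then normalised and expressed as percent viability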. Reading the numbers: viability, normalised: higher = more viable cells remaining. Rule for the call: 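Active when normalised viability falls below 80 percent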. Meaning of the calls: active = viability under 80%; inactive = viability 80% or more.
This is a random part of the about 2,100 reagents, in one setting of the screen. 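Calls flag viability under 80% in either arm, not effects specific to rucaparib; the reference for percent is not stated.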 A reagent listed more than once was tested more than once; the source does not tell the runs apart. No sequences are given here. Not given: the 100% reference.

BAZ1A (bromodomain adjacent to zinc finger domain 1A), technical replicate 1
- viability, normalised (%): 49
- outcome: active

BAZ1A (bromodomain adjacent to zinc finger domain 1A), technical replicate 2
- viability, normalised (%): 66.3
- outcome: active

BAZ1A (bromodomain adjacent to zinc finger domain 1A), technical replicate 3
- viability, normalised (%): 42.3
- outcome: active

FRK (fyn related Src family tyrosine kinase), technical replicate 1
- viability, normalised (%): 71
- outcome: active

FRK (fyn related Src family tyrosine kinase), technical replicate 2
- viability, normalised (%): 58.2
- outcome: active

FRK (fyn related Src family tyrosine kinase), technical replicate 3
- viability, normalised (%): 73.6
- outcome: active

TYMS (thymidylate synthetase), technical replicate 1
- viability, normalised (%): 34.6
- outcome: active

TYMS (thymidylate synthetase), technical replicate 2
- viability, normalised (%): 31.4
- outcome: active

TYMS (thymidylate synthetase), technical replicate 3
- viability, normalised (%): 39.7
- outcome: active

PSIP1 (PC4 and SRSF1 interacting protein 1), technical replicate 1
- viability, normalised (%): 45
- outcome: active

PSIP1 (PC4 and SRSF1 interacting protein 1), technical replicate 2
- viability, normalised (%): 29.9
- outcome: active

PSIP1 (PC4 and SRSF1 interacting protein 1), technical replicate 3
- viability, normalised (%): 48.6
- outcome: active

DGKE (diacylglycerol kinase epsilon), technical replicate 1
- viability, normalised (%): 71.1
- outcome: active

DGKE (diacylglycerol kinase epsilon), technical replicate 2
- viability, normalised (%): 64.4
- outcome: active

DGKE (diacylglycerol kinase epsilon), technical replicate 3
- viability, normalised (%): 61.7
- outcome: active

PKN1 (protein kinase N1), technical replicate 1
- viability, normalised (%): 70.3
- outcome: active

PKN1 (protein kinase N1), technical replicate 1
- viability, normalised (%): 67.3
- outcome: active

PKN1 (protein kinase N1), technical replicate 1
- viability, normalised (%): 47.8
- outcome: active

PKN1 (protein kinase N1), technical replicate 2
- viability, normalised (%): 53
- outcome: active

PKN1 (protein kinase N1), technical replicate 2
- viability, normalised (%): 78
- outcome: active

PKN1 (protein kinase N1), technical replicate 2
- viability, normalised (%): 40.6
- outcome: active

PKN1 (protein kinase N1), technical replicate 3
- viability, normalised (%): 66.7
- outcome: active

PKN1 (protein kinase N1), technical replicate 3
- viability, normalised (%): 33.3
- outcome: active

PKN1 (protein kinase N1), technical replicate 3
- viability, normalised (%): 73.9
- outcome: active

SGK1 (serum/glucocorticoid regulated kinase 1), technical replicate 1
- viability, normalised (%): 40.5
- outcome: active

SGK1 (serum/glucocorticoid regulated kinase 1), technical replicate 2
- viability, normalised (%): 49.4
- outcome: active

SGK1 (serum/glucocorticoid regulated kinase 1), technical replicate 3
- viability, normalised (%): 35.5
- outcome: active

POLR2E (RNA polymerase II, I and III subunit E), technical replicate 1
- viability, normalised (%): 70.9
- outcome: active

POLR2E (RNA polymerase II, I and III subunit E), technical replicate 2
- viability, normalised (%): 66.8
- outcome: active

POLR2E (RNA polymerase II, I and III subunit E), technical replicate 3
- viability, normalised (%): 71.2
- outcome: active

PIK3CD, technical replicate 1
- viability, normalised (%): 110
- outcome: inactive

PIK3CD, technical replicate 2
- viability, normalised (%): 55
- outcome: active

PIK3CD, technical replicate 3
- viability, normalised (%): 47.1
- outcome: active
